PubChem BioAssay AID652259 – Drosophila RNAi Screening Center, 2013
The deposit covers about 22,000 reagents; this is an unselected part of those with a known target gene and a result. In the full data, 233 (1.1%) got an active call. 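Light values are raw, unnormalised plate reads; the ratio scores behind the reporter calls were not deposited.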 A number with no mark means an inactive call. A plus sign joins genes that one reagent is predicted to hit. Not stated in the record: the amount of reagent, the time to read-out, the dose of the treatment.

Screen: 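Knock-downs that push a Wingless-driven reporter up or down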 (primary screen)
Cell system: Drosophila clone 8 imaginal disc epithelial cells
Reagents: long dsRNA against Drosophila genes
Challenge: pathway stimulated by co-transfected Wingless expression plasmid
Detection: 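Firefly luciferase from a tcf-site Wingless reporter, measured alongside co-transfected Renilla luciferase that tracks transfection; pathway stimulated by a Wingless plasmid; the firefly-to-Renilla ratio is not deposited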
Scale: firefly reporter light: higher = more Wg reporter light, before normalisation; Renilla control light: higher = more transfected or surviving cells
Call rule: 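a knock-down is a candidate when at least two out of four statistical tests show it departing from its plate mean; one test alone signals a weak candidate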
Meaning of the calls: active = candidate regulator (raises or lowers reporter); inactive = not a candidate

Gene | amplicon | reporter change call, replicate 1 | firefly reporter light, replicate 1 | firefly reporter light, replicate 2 | Renilla control light, replicate 1 | Renilla control light, replicate 2
E(spl)m3-HLH | DRSC16694 | – | 16162 | – | 5051 | –
ecd | DRSC08574 | – | 13936 | – | 3403 | –
Sgs5 | DRSC16862 | – | 15415 | – | 3590 | –
CG31826 | DRSC03357 | – | 4656 | 6807 | 1424 | 3104
CG34382 | DRSC08999 | – | 3687 | – | 1220 | –
CG34382 | DRSC10166 | – | 6369 | – | 4498 | –
CG34382 | DRSC10167 | – | 5449 | – | 3792 | –
Gr2a | DRSC18603 | – | 22349 | – | 19147 | –
CG4646 | DRSC06876 | – | 6982 | – | 2583 | –
kra | DRSC12320 | – | 6497 | – | 1905 | –
CG14341 | DRSC00371 | – | 2400 | 7973 | 1632 | 3761
CG7179 | DRSC03020 | – | 4322 | 4038 | 1305 | 1629
lectin-28C | DRSC03010 | – | 2585 | 7491 | 833 | 3872
asRNA:CR43477 + CG12256 | DRSC14484 | – | 11488 | – | 3233 | –
CG1622 | DRSC19745 | – | 3232 | 7881 | 873 | 2036
CG13699 | DRSC10048 | – | 5933 | – | 2628 | –
Fib | DRSC04614 | – | 3209 | 6888 | 1002 | 3427
CG14820 | DRSC10191 | – | 3611 | 7068 | 2080 | 5749
Spt20 | DRSC10280 | Wg reporter activity raised (active) | 7360 | – | 752 | –

Sorted by “firefly reporter light, replicate 1” (low to high): 4 of the entries above
Gene | amplicon | reporter change call, replicate 1 | firefly reporter light, replicate 1 | firefly reporter light, replicate 2 | Renilla control light, replicate 1 | Renilla control light, replicate 2
CG14341 | DRSC00371 | – | 2400 | 7973 | 1632 | 3761
lectin-28C | DRSC03010 | – | 2585 | 7491 | 833 | 3872
CG7179 | DRSC03020 | – | 4322 | 4038 | 1305 | 1629
asRNA:CR43477 + CG12256 | DRSC14484 | – | 11488 | – | 3233 | –

The list goes on:
Gene | amplicon | reporter change call, replicate 1 | firefly reporter light, replicate 1 | firefly reporter light, replicate 2 | Renilla control light, replicate 1 | Renilla control light, replicate 2
CG14561 | DRSC11722 | – | 22483 | – | 5632 | –
CG2887 | DRSC18235 | – | 18162 | – | 7800 | –
Cnep1r2 | DRSC10950 | – | 7458 | – | 3152 | –
CheB42c | DRSC04972 | – | 2941 | 7040 | 896 | 2936
CG13984 | DRSC02316 | – | 2826 | 10342 | 216 | 4154
CG10730 | DRSC02102 | – | 2934 | 6412 | 757 | 3612
ND-ACP | DRSC08724 | – | 4822 | – | 2501 | –
beat-Ic | DRSC01524 | – | 23251 | – | 7825 | –
beat-Ic | DRSC03491 | – | 3401 | 2194 | 731 | 1481
CG8939 | DRSC20127 | – | 1667 | 5793 | 770 | 2138
